Our source for the cell number change and AC50 values is PubChem BioAssay AID2685 (National Center for Advancing Translational Sciences (NCATS), 2010).

A short description of the assay: qHTS Assay for Lipid Storage Modulators in Drosophila S3 Cells.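 For cell number change: cells counted by Cell Tracker Red CMTPX staining in the red channel.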 Particulars: BODIPY lipid droplet fluorescence, 18-24 h; for cell number change: measured here: cell count max response, cells fed with added oleic acid. The essentials: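 Drosophila S3 cells loaded with oleic acid (400 uM, as added) and compounds at several concentrations; lipid droplets imaged by 488-nm laser-scanning cytometry, 500–530 nm intensity and object ratio to cell channel. Percent activity normalized to 20 uM Triacsin C.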

Setting [1] is: measured here: lipid fluorescence (Fed channel) AC50, cells fed with added oleic acid.
Setting [2] is: measured here: cell number channel AC50, cells fed with added oleic acid.

Structures are written as SMILES. Some of the results follow. Further columns of the screen follow, without active or inactive calls. Most of these compounds were active or inconclusive in the main read-out, so they are no random draw. Words in brackets tell the shape of the fitted curve; partial curves, single points and poor fits give uncertain potencies.

`CC1(C)CC(=O)C(C=NCC2CCNCC2)=C(O)C1`: the cell number change is -21.3%. Further, the AC50 under setting [1] was 5.17 µM [falling, full curve].
Take `COc1ccc(N(CC(=O)NC2CCCCCC2)S(=O)(=O)c2ccc(C)cc2)cc1OC`: the cell number change is -0.88%. Besides, the AC50 under setting [1] is 0.116 µM [rising, single point].
Turning to `O=C(CCNC(=O)c1ccc([N+](=O)[O-])cc1)NNC(=O)c1ccccc1F`, the cell number change turned out to be 14.6%. Moreover, the half-maximal activity concentration (AC50) under setting [1] is 0.651 µM [falling, single point].
With `O=C(NCCCN1CCOCC1)c1cc(-c2ccc(Br)cc2)on1`, the cell number change is 9.85%.
As for `O=C(Nc1ccc(C(=O)O)cc1)Nc1ccc([N+](=O)[O-])cc1`, the cell number change amounted to 39.9%. Under setting [1], the concentration at half-maximal activity (AC50) was 29.1 µM [rising, single point].
As for `COc1c(F)c(F)c(C(=O)Nc2ccccc2N2CCN(C(=O)C(C)C)CC2)c(F)c1F`, the cell number change is -18.8%. The half-maximal activity concentration (AC50) under setting [1] was 0.146 µM [falling, single point].
Regarding `CCc1c(C)nc2ncnn2c1N1CCCC(C(=O)NCc2ccc3c(c2)OCO3)C1` (configuration not stated), the cell number change was -31.3%. Besides, the concentration at half-maximal activity (AC50) under setting [2] was 23.1 µM [falling, single point].
`CN(Cc1nccs1)C(=O)C1CCC(=O)N(Cc2ccccc2F)C1` (configuration not stated): the cell number change is -10.9%. Under setting [1], the half-maximal activity concentration (AC50) is 29.1 µM [rising, single point].
On to `COC(=O)c1ccc(OC)c(CSc2nnc(COc3ccc(Cl)cc3)o2)c1`, for which the cell number change turned out to be 141%. For the same compound, the AC50 under setting [2] is 14.6 µM [rising, partial curve]. Also, the AC50 under setting [1] was 6.51 µM [rising, single point].
As to `CCCCc1nnc(NC(=O)CC(=O)Nc2ccccc2C(=O)O)s1`, the cell number change was 12.9%.
Turning to `COc1cc(C(=O)Nc2ccc(C)cn2)ccc1OCC(=O)N1CCOCC1`, under setting [1], the concentration at half-maximal activity (AC50) is 1.03 µM [falling, full curve].
As for `CS(=O)(=O)C1=NSC2=NC(=O)/C(=C\c3cccn3-c3ccccc3Cl)C(=N)N21`, the cell number change was found to be 39.4%. Besides, under setting [2], the concentration at half-maximal activity (AC50) was 2.31 µM [rising, single point]. Also, the AC50 under setting [1] is 1.64 µM [rising, partial curve].
As for `COc1ccccc1NC(=O)CCSCCC(=O)Nc1ccccc1OC`, the cell number change was -59.1%. Moreover, the AC50 under setting [2] was 14.6 µM [falling, partial curve, poor fit]. The AC50 under setting [1] is 6.51 µM [rising, single point].
Regarding `CSc1ccccc1C(=O)OCC(=O)NC1CCS(=O)(=O)C1` (configuration not stated), the cell number change is -28%.
For the compound `COc1ccc(OC)c(C2=NOC(C(=O)N3CCCc4ccccc43)C2)c1` (configuration not stated), the cell number change is -34.9%. Further, the AC50 under setting [2] is 18.4 µM [falling, single point].
In the case of `N/C(=N\OC(=O)COc1ccc(Br)cc1)c1ccncc1`, the cell number change turned out to be 58.9%. The AC50 under setting [2] was 29.1 µM [rising, single point]. In addition, the AC50 under setting [1] is 2.06 µM [rising, partial curve].
For the compound `Cc1ccc(O)c(NC(=S)NC(=O)CC(C)C)c1`, the cell number change was found to be 50%. For the same compound, the AC50 under setting [2] was 1.84 µM [rising, partial curve, poor fit]. Further, the AC50 under setting [1] was 29.1 µM [rising, single point].
Regarding `CCOC(=O)C1(CCOc2ccccc2)CCN(Cc2ccc(C)o2)CC1`, the cell number change is -46.4%.
In the case of `O=C(CNC(=O)c1ccccc1F)NNC(=O)c1ccccc1O`, the cell number change is 19.4%. Under setting [1], the concentration at half-maximal activity (AC50) is 6.51 µM [falling, single point].
For the compound `CN1CCN(c2ccccc2NC(=O)c2ccc([N+](=O)[O-])o2)CC1`, the cell number change was -37.2%. Moreover, under setting [2], the AC50 is 23.1 µM [falling, single point].
In the case of `COc1ccc(/C=C/C(=O)c2cc(Cl)cc(Cl)c2O)c(OC)c1`, under setting [2], the AC50 is 0.92 µM [rising, partial curve].
Take `COc1ccc(C(=O)NC(C)c2nnc(SCC(=O)Nc3nc(C)cs3)n2C)cc1` (configuration not stated): the cell number change turned out to be 11.3%. In addition, the concentration at half-maximal activity (AC50) under setting [2] was 0.461 µM [rising, full curve, poor fit]. For the same compound, the concentration at half-maximal activity (AC50) under setting [1] is 6.51 µM [rising, single point].
Consider `O=C(Nc1nc(-c2ccccc2Cl)cs1)c1cccnc1`, for which the cell number change worked out at 2.06%. The concentration at half-maximal activity (AC50) under setting [1] is 6.51 µM [rising, single point].
Regarding `O=C(O)CN1C(=O)CSC1=S`, the cell number change was 14.4%. Besides, the AC50 under setting [2] is 0.00411 µM [rising, full curve, poor fit]. The half-maximal activity concentration (AC50) under setting [1] is 29.1 µM [rising, single point].
For `CC(=O)N/C(=C\c1ccc(F)cc1)C(=O)N(C)C`, the cell number change was -18.5%. Moreover, the half-maximal activity concentration (AC50) under setting [1] is 2.06 µM [falling, single point].
Consider `COc1ccc(/C=C(/C#N)C(=O)Nc2cc(C)ccc2C)cc1C(=O)O`, for which the concentration at half-maximal activity (AC50) reads like this: under setting [2], 1.84 µM [falling, partial curve]; under setting [1], 23.1 µM [rising, single point].
On to `C/C(CCN1CCc2nc(-c3ccccc3)c(-c3ccccc3)cc2C1)=N\O[C@H](C)c1cn([C@H](CO)Cc2ccccc2)nn1`, for which the cell number change was 7.08%. In addition, under setting [1], the AC50 is 23.1 µM [rising, single point].
On to `Cc1ccc(S(=O)(=O)CC(O)COc2ccc(C#N)cc2)cc1` (configuration not stated), for which the cell number change was -38.8%. Also, the half-maximal activity concentration (AC50) under setting [2] was 32.6 µM [falling, single point].
Regarding `Cc1ccc(C(=O)O)cc1NC(=S)NC(=O)c1ccc([N+](=O)[O-])cc1Cl`, the cell number change is 2.17%.
Take `C/C(=N\NC(=O)CSc1ncccn1)c1ccc2c(c1)OCCO2`: the AC50 under setting [1] is 0.58 µM [rising, single point].
On to `O=C(COC(=O)CC12CC3CC(CC(C3)C1)C2)Nc1ncc(Cl)cc1Cl`, for which the cell number change is -38.4%. Further, under setting [2], the half-maximal activity concentration (AC50) is 0.517 µM [falling, full curve]. In addition, under setting [1], the AC50 was 1.3 µM [falling, full curve].
As to `CCN(CC)S(=O)(=O)c1cccc(C(=O)N2CCCc3ccccc32)c1`, the cell number change came out at 10.1%. For the same compound, under setting [1], the concentration at half-maximal activity (AC50) is 32.6 µM [rising, single point].
Take `CC(=O)Nc1ccc(-c2nnc(SCC(=O)NCc3ccco3)n2C)cc1`: the cell number change is -14.8%. In addition, the concentration at half-maximal activity (AC50) under setting [1] is 0.0058 µM [falling, full curve, poor fit].
For `COC(=O)Cn1ncc2c3ccccc3n(Cc3ccccc3)c2c1=O`, the cell number change is -6.38%. Besides, the half-maximal activity concentration (AC50) under setting [2] was 0.0092 µM [rising, full curve, poor fit]. In addition, the AC50 under setting [1] is 1.46 µM [rising, partial curve].
As to `CN(C)CCCN1C(=O)C(=O)/C(=C(/O)c2ccncc2)C1c1ccccc1` (configuration not stated), the cell number change is -10.7%. Also, the AC50 under setting [1] was 0.082 µM [falling, full curve, poor fit].
Consider `CN1CCN(c2oc(-c3ccccc3)nc2S(=O)(=O)c2ccc(Br)cc2)CC1`, for which the cell number change amounted to 35.8%. For the same compound, the half-maximal activity concentration (AC50) under setting [2] was 0.82 µM [rising, full curve, poor fit]. The concentration at half-maximal activity (AC50) under setting [1] was 14.6 µM [rising, partial curve].
With `Cc1ccnc(NS(=O)(=O)c2cccc3nsnc23)c1`, the cell number change is -0.74%.
For the compound `COc1ccccc1C1=CC(=O)C[C@H](c2ccc3c(c2)OCO3)C1`, the cell number change was -9.63%. The AC50 under setting [1] was 0.366 µM [rising, full curve, poor fit].
For `Cc1cccc(N(C)S(=O)(=O)c2ccc3c(c2)NC(=O)CC(=O)N3)c1`, the cell number change was found to be 6.77%. Also, the AC50 under setting [1] is 29.1 µM [rising, single point].
Regarding `Cc1cccc2[nH]c3c(N4CC=C(c5ccc(F)cc5)CC4)ncnc3c12`, the cell number change was -28.5%. Further, the concentration at half-maximal activity (AC50) under setting [1] was 32.6 µM [falling, single point].
Consider `CCOC(=O)N1CCN(c2cc3nccnc3cc2F)CC1`, for which the cell number change came to 54%. Besides, under setting [2], the AC50 is 13 µM [rising, partial curve]. The half-maximal activity concentration (AC50) under setting [1] is 6.51 µM [rising, single point].
As for `CC1CCCCN1C(=O)COC(=O)CNC(=O)c1sc2ccccc2c1Cl` (configuration not stated), the cell number change was determined as 11%. Under setting [2], the AC50 was 1.3 µM [falling, full curve]. Also, under setting [1], the AC50 was 1.3 µM [falling, full curve].
For the compound `O=C(O)C1CCC(=O)N1C(=O)OCc1ccccc1` (configuration not stated), the cell number change was determined as 17%. The concentration at half-maximal activity (AC50) under setting [1] is 29.1 µM [falling, partial curve, poor fit].
Turning to `COc1cc(C(=O)N2CCN(c3ccccc3OC)CC2)c([N+](=O)[O-])cc1OC`, the cell number change was -2.98%. Besides, under setting [2], the AC50 was 0.0058 µM [falling, full curve, poor fit]. Also, the half-maximal activity concentration (AC50) under setting [1] is 0.0058 µM [falling, full curve, poor fit].
As for `Cc1cc(N2CCOCC2)ccc1/C=C1\SC(=O)N(C(C)C)C1=O`, the cell number change is 29.6%.
For the compound `O=C1N=C(N2CCCC2)S/C1=C\c1cn[nH]c1-c1ccccc1`, the cell number change worked out at 4.18%. Also, the AC50 under setting [1] was 23.1 µM [rising, partial curve].
On to `O/N=C(/c1ccc(F)cc1)C1CC1c1c(F)cccc1Cl` (configuration not stated), for which the cell number change was -40.2%. In addition, the AC50 under setting [2] is 29.1 µM [falling, single point]. For the same compound, under setting [1], the AC50 was 29.1 µM [falling, single point].
On to `O=C(COc1ccccc1)Nc1ccccc1C(=O)NC1CC1`, for which the cell number change is 21.9%. Moreover, the AC50 under setting [2] is 0.291 µM [rising, full curve, poor fit]. Moreover, under setting [1], the AC50 is 0.517 µM [rising, partial curve].
As to `Cc1ccc(NC(=O)CCC(=O)N/N=C/c2ccc([N+](=O)[O-])o2)cc1C`, the cell number change was -17.4%. In addition, the half-maximal activity concentration (AC50) under setting [1] was 32.6 µM [falling, single point].
For `CCn1c(SCc2ccccc2F)nnc1-c1ccncc1`, the cell number change came out at 19.1%. Also, the AC50 under setting [1] is 9.2 µM [rising, partial curve].
On to `CSCCC(NC(=O)c1ccc([N+](=O)[O-])cc1Cl)C(=O)OCC(=O)NC1CCCC(C)C1C` (configuration not stated), for which, under setting [2], the concentration at half-maximal activity (AC50) was 7.31 µM [falling, single point].
As to `O=C(Nc1nnc(SCc2ccccc2)s1)c1cccc([N+](=O)[O-])c1`, the cell number change worked out at 16.3%. Besides, the AC50 under setting [1] is 0.116 µM [rising, full curve, poor fit].
For the compound `CCCn1c(C(C)Nc2nc(-c3ccc(OC)cc3)cs2)nc2ccccc21` (configuration not stated), the cell number change worked out at 19.7%. Besides, under setting [1], the AC50 was 29.1 µM [rising, partial curve].
`O=C(CCC1CCN(C(=O)Cc2c(F)cccc2F)CC1)NC1CC1`: the cell number change amounted to 9.24%. The AC50 under setting [2] was 2.31 µM [rising, partial curve, poor fit].
For the compound `COC(=O)COc1ccc(NS(=O)(=O)c2cccc([N+](=O)[O-])c2)cc1`, the cell number change was 25.7%.
For `COc1cc(NC(=O)C2CCCCC2)c(OC)cc1NC(=O)c1ccccc1`, the cell number change is -32.5%. Further, under setting [2], the AC50 is 25.9 µM [falling, single point].
In the case of `CC(C)COc1ccc(C(=O)N(CC(=O)Nc2ccccc2C(F)(F)F)Cc2ccco2)cc1`, the cell number change worked out at 24.2%. For the same compound, the concentration at half-maximal activity (AC50) under setting [1] is 0.651 µM [rising, full curve, poor fit].
